Among all 31,000 sequences or so, about 1,400 (4.5%) were called active.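 Rule for the calls: active = median seed-adjusted z-score above 1 or below -1; inactive = the rest.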 The list shows a part of the results.

This experiment is described as follows: Novel Modifiers of Survival Motor Neuron (SMN) Protein: Gene Identification via Genome-wide siRNA Screen.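 Note: luminescence tracks full-length SMN protein made from the SMN2 reporter.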 The settings on record: HEK293T SMN2-luciferase reporter, siRNA knockdown, 72 h; actives lie on both sides. The method in brief:
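HEK293T cells stably carrying an SMN2 promoter/splicing cassette–luciferase reporter were reverse-transfected with 1 pmol siRNA per well (druggable-genome library, 3 siRNAs per gene) and grown 72 h at 37 °C. Luminescence, normalized to negative-control siRNA and log10-transformed, was scored as MAD.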
(In a reporter assay the amount or activity of a reporter protein is the signal.)
For the sequence CCUCAUUCGUGAUAGUGAATT against NCK1, the median seed-adjusted z-score is inactive: -0.0795.
Turning to CCAAGGGCACGGGAAUUAATT against PON2, the median seed-adjusted z-score was inactive: 0.
Under CGUACUUCCAGUCAAUUAATT against EXT2 stands inactive: -0.127; under GGACUACGGUUGUCAGAAATT against TRPC1, inactive: -0.196; under GGAUCGUUUAUGAACCUAATT against SLITRK6, inactive: -0.136.
In the case of GCCCUGUACUGGUUCAACUTT against SLC25A39, the median seed-adjusted z-score is inactive: -0.111.
For the sequence GCAACCCACCAAUAACUAATT against ADAM29, the median seed-adjusted z-score is inactive: 0.904.
As for GGUCCAGGUUAAAACAGAATT against HDAC9, the figure is inactive: -0.135.
As to GCACCAUUGUGACCUACCATT against HYOU1, the median seed-adjusted z-score was inactive: 0.0557.
For the sequence CAAUGCUAUUUCAAAGCAATT against ZCCHC8, the median seed-adjusted z-score is inactive: 0.356.
Under GCCUUAAACCUUUUGAAAATT against SERPINB6 stands inactive: 0.0155; under GGACUUUAUAGACAAACUATT against PSKH2, inactive: 0.0439; under GCGAAAAGCUGGAACGACATT against RACGAP1, inactive: 0.
On to AGAAUAAAGCGAUUCCACATT against LCN6, for which the median seed-adjusted z-score was inactive: 0.584.
With GCAUCCUCCUUCUGGACUATT against S1PR2, the median seed-adjusted z-score was inactive: -0.964.
Consider CCACGUCCUUUGACAAGUUTT against PPP1R3C, for which the median seed-adjusted z-score was inactive: 0.
As for GUUCAGCCGUGGAAAGAAATT against WFDC6, the median seed-adjusted z-score is inactive: 0.0443.
Under GGUUAGAAGAUGGUCGUGATT against ACOX2 stands inactive: -0.545; under ACACCUACCUGGUCCUCAUTT against MC3R, inactive: 0.424.
Consider AGAUUUCUACCACUCCAAATT against CDKN1A, for which the median seed-adjusted z-score was inactive: 0.158.
Consider GCUGCGCACAAGUAAGGAATT against AP2A2, for which the median seed-adjusted z-score was inactive: 0.158.
Under GGAGAGAAGUUUUCAACUUTT against USP22 stands inactive: 0.
With GUCCCGCUAUGACUACUUUTT against GRM2, the median seed-adjusted z-score is inactive: -0.664.
GUAUUUGUAUCUAUGGAAATT against GCNT2: the median seed-adjusted z-score was inactive: -0.0107.
Turning to GCCUGUUAAUCUGCGUGAATT against USP9X, the median seed-adjusted z-score is inactive: -0.443.
Consider GGGUUGCAAUGGUUCCACATT against LIN9, for which the median seed-adjusted z-score was inactive: 0.
As for UCACUGUCCCAGACACCAATT against EPO, the median seed-adjusted z-score is inactive: 0.148.
For GCACUGUGCUUAAGCUGGATT against PKN1, the median seed-adjusted z-score is inactive: -0.753.
Regarding GGUGCAUCAUUUUGAGAUUTT against ITIH1, the median seed-adjusted z-score was inactive: 0.0403.
In the case of CAUGAUAUCUGGACCCAAATT against SSX3, the median seed-adjusted z-score is inactive: 0.
Under GCAUGAUCUUAGUCAAGGATT against PROSC stands inactive: 0.173; under GUGGUAUCGUGAGUCUAAATT against MTTP, inactive: 0.
On to AGACAAUCAGGGAAUUAAATT against THAP6, for which the median seed-adjusted z-score was inactive: 0.368.
With GAAUAGACUUGCUAUCAAATT against AK7, the median seed-adjusted z-score was inactive: -0.702.
As to CAGUGUACCUGUGAAGACATT against GPR110, the median seed-adjusted z-score is inactive: 0.0158.
Regarding CGUCCAUGUUUAUCUACAATT against ENTPD2, the median seed-adjusted z-score is inactive: 0.0319.
As for GCAUAUGGUUCUGAAGAUATT against GTF2E1, the median seed-adjusted z-score was active: 1.76.
As for CAGAGUAACUGGACGAAAUTT against NFAT5, the median seed-adjusted z-score was inactive: 0.106.
Regarding GAAGAUCGAUUUGACAAAUTT against TM9SF3, the median seed-adjusted z-score is inactive: -0.267.
Under CAAUGCAGUUUAUUAGUCATT against RIT2 stands inactive: 0.253.
With GAUGGGUAAAUGUACAUAUTT against KCNIP4, the median seed-adjusted z-score is inactive: -0.401.
For the sequence GGAUUACGUAUCAGACAUATT against CNGA1, the median seed-adjusted z-score was active: -1.08.
Turning to CCAUUGAUGACUGUACUAATT against RP2, the median seed-adjusted z-score is inactive: -0.655.
On to GCUUAUUGUCCAUUCACAUTT against NAT8, for which the median seed-adjusted z-score was inactive: -0.228.
Turning to GCAUCUACGACCAGGUGUATT against PAQR9, the median seed-adjusted z-score is inactive: 0.116.
In the case of CAACAUCGCUGACCAGGAUTT against ASB10, the median seed-adjusted z-score was inactive: 0.
With CACCCAGUGUAGAACUAGATT against ARID4B, the median seed-adjusted z-score was inactive: 0.211.
As for GUUUGAUGGUAGGAUCGUATT against CAPS2, the figure is inactive: 0.135; as for GAGUCACAGUUGAAGAUCUTT against GOT2, inactive: 0.205; as for GGCAAAAUCCCGUAUGAAATT against ITK, inactive: -0.0372.
As to CGACUAGUACAUCAAUUAATT against ERC2, the median seed-adjusted z-score is inactive: 0.172.
With GCUACCACCUAAUAGUUUUTT against DECR1, the median seed-adjusted z-score was inactive: 0.0567.
For the sequence GAGCCUGACUCAGUCUUUATT against AQP9, the median seed-adjusted z-score is inactive: -0.192.
GGAAUAUCUUGUACCGGAATT against QRSL1: the median seed-adjusted z-score is inactive: -0.539.
Consider GGGAUUUUUCUGCAAAGAATT against ATG4A, for which the median seed-adjusted z-score is inactive: -0.288.
As for GGAUUUCUAGGUGGAGUAATT against CHPT1, the figure is inactive: 0.0678; as for AAAUCCCGGUGAUAAUAGATT against MAP1LC3B, inactive: -0.0749; as for GCGAGAAAGUCAUGCAUGATT against PCDH19, inactive: 0.
Regarding CUACCUGUAUGAGAUCCAATT against IGF2R, the median seed-adjusted z-score was inactive: 0.274.
As for GAUUAUCCUUGUACUUUGATT against OAZ1, the median seed-adjusted z-score was inactive: 0.144.
With GUUUUUAUCUGAAUGCAUATT against BCL2L10, the median seed-adjusted z-score is inactive: 0.361.
With CGUGCCUUAUGUCCUCAUATT against RHOJ, the median seed-adjusted z-score is inactive: -0.304.
In the case of GCAUAUAGAGUAACAACAATT against SNX2, the median seed-adjusted z-score was inactive: -0.569.
On to AGUUCACCGUGCAAAUGCATT against HBM, for which the median seed-adjusted z-score was inactive: 0.
Under AGUGCAUGGUUGCAGCUGATT against RNF144A stands inactive: -0.185; under GAACAGUGCGGUGAUAUUATT against ENOX1, inactive: 0.0694; under GGACAGUGGAACUUAUAGATT against MANBA, inactive: 0.473.
For the sequence CGCGGCAGGUCAUUAGUAATT against EIF2AK3, the median seed-adjusted z-score is inactive: -0.0208.
GGUACUUUACUAUCUUCUATT against MC4R: the median seed-adjusted z-score is inactive: 0.154.
For UGAAUACAACGCCACACAATT against HNRNPA1L2, the median seed-adjusted z-score is inactive: 0.732.
With CAGCCGUCGAAGGAACUCATT against KIF12, the median seed-adjusted z-score is inactive: 0.0971.
Regarding CACAAGUUGUGCCUAAUAATT against ZNF280B, the median seed-adjusted z-score is inactive: 0.113.
Regarding GCAUAAGGAUAGCACUGGATT against SDCBP, the median seed-adjusted z-score is inactive: 0.0325.
In the case of CUAAGAUGGUUAUCAAGAATT against SLC1A2, the median seed-adjusted z-score was inactive: 0.249.
Take GCGAGUCCAUAGGCGAGAATT against RAPSN: the median seed-adjusted z-score is inactive: 0.143.
Regarding GACUUGAAGAUGCUAAUCATT against TIPIN, the median seed-adjusted z-score was inactive: 0.
For GGUGAACAGUGGUAUAGCATT against HDAC10, the median seed-adjusted z-score was inactive: -0.165.
Take GGAUGACCCUCAAUGACGATT against ZFHX4: the median seed-adjusted z-score is inactive: 0.0868.
Under GCGUCAGGGCUAUACCAUATT against CACNA1E stands inactive: 0.285; under UCACUAUUCUAUGCCUUAATT against TAGAP, inactive: 0; under AUAUGUCUCUGUAAAGUGATT against SP5, inactive: 0.105.
Consider CAGAUGCGGUUUAAACAGATT against TBC1D9B, for which the median seed-adjusted z-score is inactive: -0.906.
Regarding AGACACCGCUGUCCACUCATT against NOS1AP, the median seed-adjusted z-score is inactive: 0.00192.
With AGCCCAAGGUGGAACAAUCTT against CREM, the median seed-adjusted z-score is active: -2.37.
For CCUUAUUACGGGAGGGUGATT against IL22RA2, the median seed-adjusted z-score was inactive: -0.147.
As for CAGUAGAACUUGGAUUAGATT against AKAP5, the figure is inactive: 0.0592.
Turning to ACAGCUCCGUGUUGACUCATT against FOXG1, the median seed-adjusted z-score was inactive: 0.749.
In the case of CCUCAUCUAUGGGCACUUUTT against HMGCL, the median seed-adjusted z-score is inactive: 0.046.
In the case of GGAUGACUGUACUAAGAAATT against ZNF554, the median seed-adjusted z-score was inactive: 0.0311.
As for GAGUUUCUGUGGACCGCAATT against TRIM2, the median seed-adjusted z-score is inactive: -0.207.
For AACUAGAAGUCAUCAUUGATT against SLC8A3, the median seed-adjusted z-score is inactive: -0.0434.
As for AGACUAUGCGAAGAACUUATT against GAS7, the figure is inactive: 0.335; as for ACCUGUGUGCUGUACUUUUTT against TUBA1C, inactive: 0.157; as for ACAUUAUGGGCAUCGAGAATT against NR2F1, inactive: 0.259.
Under GGCAUUGAAUUUAACUCAATT against SEMA3D stands inactive: -0.0201; under GCUUGACCUUUGAAUAUGATT against CRY2, inactive: 0.0209.
With GGAAGUCCAUUGACCCAAATT against SPAST, the median seed-adjusted z-score was inactive: 0.0703.
In the case of CUAUGUUUGUGACCAGUGUTT against ZNF689, the median seed-adjusted z-score is inactive: 0.448.
Take GCACUGCCUGCUGUACUCATT against CCL27: the median seed-adjusted z-score is inactive: 0.
With GGCGAGAAGUUUAAACUCATT against DNAJA4, the median seed-adjusted z-score was inactive: 0.145.
As for GGCGGUACCUGCAGAUGAATT against ACOT7, the figure is inactive: 0.665.
With UGAAAAGACUUGAUGUGAATT against THAP6, the median seed-adjusted z-score was inactive: 0.368.
Regarding GGAUUCAUGAGUCUAUAUATT against SLC25A27, the median seed-adjusted z-score is inactive: 0.0916.
As to AGGAUGGAGUGGAGACAUATT against EMILIN1, the median seed-adjusted z-score is inactive: 0.
With GCAUCUAAGAAGAUCAACATT against UTRN, the median seed-adjusted z-score was inactive: 0.909.
On to CCACGAUGCUGAGCUCCUATT against RNF112, for which the median seed-adjusted z-score was inactive: -0.42.
Consider GCAAUACGCUUGAACUGAATT against MYO1E, for which the median seed-adjusted z-score was inactive: -0.02.
Under CAAAUCUGCUCAUCGAAAATT against MID1 stands inactive: -0.294.

Source of the values: PubChem BioAssay AID1347426 (Functional Genomics Laboratory (NCATS/FGL), 2020).
